According to patent US20250108135A1, “TERAGNOSTIC METHOD FOR CANCER PATIENTS” (priority 2022, published 2025):
No dose or concentration is given here for some results.

Tested on: cancer lesion
Assay: 64CuCl2 PET/CT in the selection step: lesion uptake and target to background ratio (TBR)
Assay type: in vivo, human
Settings: PET/CT of selection step; phase I trials, 16 glioblastoma and 16 prostate cancer patients

In the case of `[Cl][Cu][Cl]` [^64CuCl2, Copper Chloride], the “TBR in non-responder patients” value is reported as over 25.
